The values below come from PubChem BioAssay AID330 (DTP/NCI, 2004).

The list is a part of this screen's results and no random one: it gathers tests that were run many times, whatever their T/C, doses with no T/C, and many T/C values between a quarter and a half above the control. Further doses and runs are listed elsewhere. T/C is the treated group as % of the vehicle group. Some doses have a count of surviving animals in place of a T/C: the source holds a T/C of zero for them, seemingly a mark for toxic or unscored doses. Some doses without a T/C left all or most animals alive at the check, yet need not have been tolerated: the source hardly ever lists a survival T/C far under the control, and the zero likely stands for such cases as well. Counts of survivors are from the toxicity check (mostly the fifth day) where no day follows; animals may have died later. Schedule codes are those of the source, read here as Q, the interval in days (D) or hours (H), X, the number of doses. Some entries hold several experiments; the values are given in rising order. Where survival is the endpoint, the PubChem record calls one and a half times the control and up active, and a quarter to a half above the control has no call in these data; cut-offs in other NCI protocols can differ. Some T/C values are followed by the survivors on the day toxicity was checked, most often the fifth; where none is given, no animal had died by that day.

For this assay, the system named is P388 leukemia ip, CD2F1 mice, survival T/C. The assay can be described thus: NCI In Vivo Anticancer Drug Screen. Data for tumor model P388 Leukemia (intraperitoneal) in CD2F1 (CDF1) mice. The note with it: T/C endpoint: median survival time, higher T/C = longer survival.
[1] abbreviates: dose: 12.5 mg/kg/injection, schedule: Q01DX009 (ip), vehicle: Klucel (hydroxypropylcellulose) (HPC).
Setting [2] is: dose: 50.0 mg/kg/injection, schedule: Q01DX009 (ip), vehicle: Klucel (hydroxypropylcellulose) (HPC).
Setting [3] is: dose: 100.0 mg/kg/injection, schedule: Q01DX009 (ip), vehicle: Klucel (hydroxypropylcellulose) (HPC).
The mark [4] stands for this setting: dose: 200.0 mg/kg/injection, schedule: Q01DX009 (ip), vehicle: Klucel (hydroxypropylcellulose) (HPC).
Setting [5] is: dose: 50.0 mg/kg/injection, schedule: Q01DX005 (ip), vehicle: Klucel (hydroxypropylcellulose) (HPC).
Where [6] appears, read: dose: 100.0 mg/kg/injection, schedule: Q01DX005 (ip), vehicle: Klucel (hydroxypropylcellulose) (HPC).
Where [7] appears, read: dose: 200.0 mg/kg/injection, schedule: Q01DX005 (ip), vehicle: Klucel (hydroxypropylcellulose) (HPC).
The mark [8] stands for this setting: dose: 400.0 mg/kg/injection, schedule: Q04DX002 (ip), vehicle: Klucel (hydroxypropylcellulose) (HPC).
Where [9] appears, read: dose: 50.0 mg/kg/injection, schedule: Q01DX005 (ip), vehicle: saline with Tween-80.
The mark [10] stands for this setting: dose: 100.0 mg/kg/injection, schedule: Q01DX005 (ip), vehicle: saline with Tween-80.
Where [11] appears, read: dose: 200.0 mg/kg/injection, schedule: Q01DX005 (ip), vehicle: saline with Tween-80.
The mark [12] stands for this setting: dose: 240.0 mg/kg/injection, schedule: Q01DX005 (ip), vehicle: saline with Tween-80.

With `COc1ccc2nc(C)cc(N/N=C/c3ccc(N(CCCl)CCCl)cc3)c2c1`, the survivor count reads like this: (dose: 6.25 mg/kg/injection, schedule: Q01DX009 (ip), vehicle: Klucel (hydroxypropylcellulose) (HPC)) 6 of 6; under setting [1], 6 of 6; under setting [2], 5 of 6; under setting [3], 0 of 6; under setting [4], 0 of 5.
As for `CC(=O)OC12CC[N+]3(C)CCCCC3C1=Nc1ccccc12` (stereo not drawn), the survivor count (dose: 50.0 mg/kg/injection, schedule: Q01DX009 (ip), vehicle: saline) is on record as 0 of 6.
In the case of `CCn1c2ccccc2c2cc(N/C=C/C3=[N+](C)c4ccccc4C3(C)C)ccc21`, the survivor count reads like this: under setting [1], 6 of 6; under setting [2], 1 of 6; under setting [3], 0 of 6; under setting [4], 0 of 6.
Regarding `CC(C)NCCCNCC(=O)Nc1ccc(S(=O)(=O)c2ccc(NC(=O)CNCCCNC(C)C)cc2)cc1`, the survivor count under setting [5] is listed as 3 of 5, the survivor count under setting [6] is 0 of 5 and the survivor count under setting [7] is reported as 0 of 5.
As to `CC(=O)N1CCCC1C(=O)O` (stereo not drawn), for the setting “dose: 200.0 mg/kg/injection, schedule: Q04DX003 (ip), vehicle: saline”, the survivor count is 6 of 6.
On to `CCC[CH2][Sn]([CH2]CCC)[CH2]CCC.CCC[CH2][Sn]([CH2]CCC)[CH2]CCC`, for which the survivor count (dose: 12.5 mg/kg/injection, schedule: Q04DX002 (ip), vehicle: saline with Tween-80) is listed as 2 of 6; the survivor count (dose: 25.0 mg/kg/injection, schedule: Q04DX002 (ip), vehicle: saline with Tween-80) was 1 of 6 and 3 of 6; the survivor count (dose: 25.0 mg/kg/injection, schedule: Q04DX003 (ip), vehicle: Klucel (hydroxypropylcellulose) (HPC)) was 6 of 6; the survivor count (dose: 50.0 mg/kg/injection, schedule: Q04DX002 (ip), vehicle: saline with Tween-80) is listed as 0 of 6; the survivor count (dose: 50.0 mg/kg/injection, schedule: Q04DX003 (ip), vehicle: Klucel (hydroxypropylcellulose) (HPC)) is on record as 6 of 6; the survivor count (dose: 100.0 mg/kg/injection, schedule: Q04DX002 (ip), vehicle: Klucel (hydroxypropylcellulose) (HPC)) is given as 1 of 6. For the same molecule, the survivor count reads like this: (dose: 100.0 mg/kg/injection, schedule: Q04DX002 (ip), vehicle: saline with Tween-80) 0 of 6; (dose: 200.0 mg/kg/injection, schedule: Q04DX002 (ip), vehicle: Klucel (hydroxypropylcellulose) (HPC)) 0 of 6; (dose: 200.0 mg/kg/injection, schedule: Q04DX003 (ip), vehicle: Klucel (hydroxypropylcellulose) (HPC)) 6 of 6; under setting [8], 0 of 6.
With `CCCCNP1(NCCCC)=NP(NCCCC)(NCCCC)=NP(NCCCC)(NCCCC)=NP(NCCCC)(NCCCC)=N1`, the T/C under setting [9] was 127 and 128 % of control [5 of 6 alive]. Besides, the survivor count reads like this: under setting [10], 5 of 6; under setting [11], 1 of 6.
As for `C[CH2][Sn]([CH2]C)([CH2]C)[O]C(=O)CO`, the survivor count was 3 of 6 (dose: 6.25 mg/kg/injection, schedule: Q01DX009 (ip), vehicle: saline with Tween-80); 0 of 6 (dose: 12.5 mg/kg/injection, schedule: Q01DX009 (ip), vehicle: saline with Tween-80); 0 of 6 (dose: 25.0 mg/kg/injection, schedule: Q01DX009 (ip), vehicle: saline with Tween-80).
`COc1cccc(C=O)c1OC(=O)Oc1ccccc1`: the T/C (dose: 12.5 mg/kg/injection, schedule: Q01DX009 (ip), vehicle: distilled water + Tween-80) is 131 % of control. The survivor count was 2 of 6 (dose: 100.0 mg/kg/injection, schedule: Q01DX009 (ip), vehicle: distilled water + Tween-80); 0 of 6 (dose: 200.0 mg/kg/injection, schedule: Q01DX009 (ip), vehicle: distilled water + Tween-80); 0 of 6 (dose: 400.0 mg/kg/injection, schedule: Q01DX009 (ip), vehicle: distilled water + Tween-80).
For the molecule `COc1cc(NCCCN=C(N)N)c2ncccc2c1`, the survivor count is 3 of 5 (dose: 12.5 mg/kg/injection, schedule: Q01DX005 (ip), vehicle: saline with Tween-80); 0 of 5 (dose: 25.0 mg/kg/injection, schedule: Q01DX005 (ip), vehicle: saline with Tween-80); 0 of 5 under setting [9]; 0 of 5 under setting [10]; 0 of 5 under setting [11].
Consider `COC(=O)c1nc(NN)[nH]c(=O)c1C`, for which the survivor count (dose: 120.0 mg/kg/injection, schedule: Q01DX005 (ip), vehicle: saline with Tween-80) is on record as 2 of 6 and the survivor count under setting [12] is 0 of 6.
Consider `Cc1ccc(C)c(OP2(=O)NC3CCCCC3N2)c1` (stereo not drawn), for which, under setting [8], the survivor count was 3 of 6.
In the case of `COc1cc(C(c2cc3c(cc2O)OCO3)N2CCOCC2)cc(OC)c1OC` (stereo not drawn), under setting [12], the survivor count was 3 of 6.
Regarding `NC(CCCCNC(=S)S)C(=O)O.[Na+].[Zn+2]` (stereo not drawn), the T/C under setting [7] is 126 and 127 % of control. For the same molecule, the survivor count reads like this: (dose: 400.0 mg/kg/injection, schedule: Q01DX005 (ip), vehicle: Klucel (hydroxypropylcellulose) (HPC)) 1 of 6; (dose: 600.0 mg/kg/injection, schedule: Q01DX005 (ip), vehicle: Klucel (hydroxypropylcellulose) (HPC)) 0 of 6.
In the case of `COc1ccccc1C1OC2=C(Nc3ccccc3N2)C1=O` (stereo not drawn), the survivor count (dose: 120.0 mg/kg/injection, schedule: Q01DX005 (ip), vehicle: Klucel (hydroxypropylcellulose) (HPC)) is 6 of 6.
Regarding `CCCCc1c(O)nc2nc(-c3ccccc3)c(-c3ccccc3)nn2c1=O`, the survivor count under setting [5] is listed as 6 of 6, the survivor count under setting [6] is listed as 6 of 6 and the survivor count under setting [7] was 6 of 6.
For the molecule `ClCCN(CCCl)c1ccc(CCN2CCOCC2)cc1`, the survivor count reads like this: (dose: 100.0 mg/kg/injection, schedule: Q01DX009 (ip), vehicle: saline) 6 of 6; (dose: 200.0 mg/kg/injection, schedule: Q01DX009 (ip), vehicle: saline) 0 of 6.
For the molecule `c1ccc(C2CC(c3ccc(C4=NN(c5ccccc5)C(c5ccccc5)C4)cc3)=NN2c2ccccc2)cc1` (stereo not drawn), for the setting “dose: 100.0 mg/kg/injection, schedule: Q04DX003 (ip), vehicle: saline with Tween-80”, the survivor count is recorded as 6 of 6.
